Some of the results follow. The main result of the screen is listed elsewhere. These columns were measured beside it and carry no call. The list favours compounds with an active or inconclusive main result. Potencies come from curve fits of mixed quality, noted in brackets.
Test: qHTS Assay for Modulators of Lamin A Splicing
Details: HeLa LMNA splicing GFP/RFP minigene ratio, 48 h
Method in brief: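 S3 HeLa cells stably expressing lamin A-EGFP splicing minigene plus DsRed2, 600 cells/well, 48 h compound exposure at 37C. Laser-scanning cytometry; analysed as GFP (500-530 nm)/RFP (575-640 nm) total intensity ratio; 0.5% DMSO vehicle.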

[1] = measured here: GFP splicing reporter channel
[2] = measured here: RFP viability control channel

Structure (SMILES) | AC50 [1] | AC50 [2]
CCCCC1=CC2=CC(=O)C(C)(OC(=O)CC)C(=O)C2=CN1Cc1ccccc1 (stereo unspecified) | 0.00112 µM [rising, full curve, poor fit] | 
N/C(=N\OC(=O)N1c2ccccc2Sc2ccccc21)c1ccccc1 |  | 0.141 µM [rising, full curve, poor fit]
CC(C)(C)c1nc2ccccc2c2nnc(SCC(=O)Nc3nc4ccccc4s3)n12 | 28.2 µM [falling, single point] | 35.5 µM [falling, single point]
CC(C)c1ccc(NC(=O)c2cc(S(=O)(=O)N(C)C3CCCCC3)ccc2F)cc1 |  | 15.8 µM [rising, single point]
C[C@@H](NC(=O)/C(C#N)=C/c1ccc(O)c(O)c1)c1ccccc1 | 11.2 µM [falling, partial curve] | 
CCOc1ccc(NC(=O)c2cc(S(=O)(=O)N3CCc4ccccc43)ccc2F)cc1 | 28.2 µM [falling, partial curve] | 25.1 µM [falling, partial curve]
COc1ccc(-c2c(C)c3ccc(OCC(C)=O)cc3oc2=O)cc1 | 14.1 µM [falling, single point] | 
CCCCOc1ccc(CSCCNC(=S)Nc2ccccc2)cc1 |  | 35.5 µM [rising, single point]
Cc1ccc(OCC(=O)Nc2ccc(S(=O)(=O)Nc3ccccn3)cc2)cc1 |  | 0.891 µM [falling, full curve, poor fit]
O=[N+]([O-])c1cc(Cc2ccccc2)cc(C=Nc2ccc(N3CCOCC3)cc2)c1O |  | 14.1 µM [rising, partial curve]
CCN(CC)S(=O)(=O)c1cccc(C(=O)N/N=C/c2cccc(O)c2O)c1 |  | 14.1 µM [rising, partial curve]
Cc1ccc(-n2cc(C(=O)Oc3ccc(F)cc3)c3ccccc3c2=O)cc1 | 0.794 µM [rising, full curve, poor fit] | 35.5 µM [rising, partial curve, poor fit]
Cc1c(NC(=O)c2ccc(=O)oc2)c(=O)n(-c2ccccc2)n1C | 35.5 µM [falling, single point] | 25.1 µM [falling, partial curve]
COC(=O)[C@H]1C[C@@H]1[C@H](NC(=O)[C@H]1C[C@@H]1[C@H](NC(=O)OCc1ccccc1)c1ccccc1)c1ccccc1 |  | 20 µM [falling, partial curve, poor fit]
O=C(CCl)Nc1ccccc1C(=O)NCc1ccccc1 | 14.1 µM [falling, partial curve, poor fit] | 0.00794 µM [falling, full curve, poor fit]
O=C(CSc1nc2ccccc2[nH]1)Nc1cc(C(F)(F)F)ccc1N1CCOCC1 | 20 µM [rising, partial curve, poor fit] | 
O=C(NCCCn1ccnc1)c1cccc(S(=O)(=O)N2CCCCCC2)c1 |  | 15.8 µM [rising, single point]
COc1cccc(NC(=O)/C=C/c2ccco2)c1 |  | 8.91 µM [rising, partial curve]

Structure (SMILES) | AC50 [1] | AC50 [2]
Cc1cc(NC(=O)C2CCCN2C(=O)Nc2cccc(Cl)c2)ccc1-n1cnnn1 (stereo unspecified) | 2.82 µM [rising, partial curve] | 5.62 µM [rising, partial curve, poor fit]
Cc1ccc(C)c(Oc2ncnc(N)c2[N+](=O)[O-])c1 |  | 3.55 µM [rising, partial curve]
COc1ccccc1N(C)S(=O)(=O)c1ccc(C(=O)NCc2ccc3c(c2)OCO3)cc1 |  | 17.8 µM [rising, single point]
Cc1ccc(CNC(=O)Nc2cc(C(=O)NCc3ccc(C(C)C)cc3)ccc2N2CCCC2)cc1 | 0.01 µM [rising, full curve, poor fit] | 
CC(C)(C)OC(=O)N1CCC(c2c(C(=O)NCCN3CCc4ccccc4C3)cnn2-c2ccc(F)cc2)CC1 | 5.62 µM [falling, partial curve, poor fit] | 0.112 µM [falling, full curve]
Cc1ccc(CN(c2ccc(C(=O)N3CCc4ccccc4C3)cc2)S(C)(=O)=O)cc1 |  | 12.6 µM [rising, single point]
CCCc1nn(-c2cc(Cl)ccc2OC)c2c1C(=O)CC(C)(C)C2 | 25.1 µM [rising, single point] | 14.1 µM [rising, single point]
CCSc1nnc(NC(=O)CSc2nc3c(c(=O)n2C)SC(C)C3)s1 (stereo unspecified) | 10 µM [rising, partial curve] | 10 µM [rising, partial curve]
Cc1cc(SCCOc2ccc(Br)cc2)nc(N)n1 |  | 20 µM [rising, single point]
O=c1c2c(nc3nc(NCc4cccc(Cl)c4)[nH]n13)CCC2 | 2.82 µM [falling, partial curve, poor fit] | 
Cc1ccccc1OCCNc1cc(N2CCN(CCO)CC2)ccc1[N+](=O)[O-] |  | 0.0501 µM [rising, partial curve, poor fit]
COc1ccccc1-n1cc([C@@H]2C[C@H]3CN(c4ccccc4)C(=O)[C@]34CCCN24)cn1 |  | 0.794 µM [rising, partial curve, poor fit]
CCOc1ccc(/C=C2\C(=O)c3ccccc3OC2c2ccccc2)cc1 (stereo unspecified) | 35.5 µM [falling, single point] | 35.5 µM [falling, single point]
CSc1nc(Nc2ccc(F)cc2)cc(-c2ccccc2)n1 | 35.5 µM [falling, single point] | 35.5 µM [falling, single point]
CCc1ccccc1NC(=O)Cn1cc(S(=O)(=O)N2CCCC2)c(S(=O)(=O)N2CCCC2)c1 | 0.316 µM [falling, full curve, poor fit] | 
O=C(O)c1ccc(N=C2SCC(=O)N2Cc2ccccc2)cc1 | 3.16 µM [rising, single point] | 
CC(C)(C)c1nnc2sc(SCC(=O)N3CCCc4ccccc43)nn2c1=O | 8.91 µM [rising, single point] | 

An excerpt of these results, with tabs.
Structure (SMILES)	AC50 [1]	AC50 [2]
Cc1cc(SCCOc2ccc(Br)cc2)nc(N)n1		20 µM [rising, single point]
O=c1c2c(nc3nc(NCc4cccc(Cl)c4)[nH]n13)CCC2	2.82 µM [falling, partial curve, poor fit]	
